{"source": "paper PMC5029699", "about": "“Landscape of activating cancer mutations in FGFR kinases and their differential responses to inhibitors in clinical use” (Oncotarget, 2016)", "key": {"[1]": {"tested_on": "NIH3T3 cells expressing FGFR3 K650E", "details": "K650E NIH3T3 cells vs FGFR3TACC3-fusion cells, in words", "procedure": "(§1) For the cell viability assay in the presence of FGFR inhibitors, NIH3T3 cells transfected with the stated FGFR3 variants were plated in 96-well plates, 1000 cells per well. Twenty-four hours later the cells were treated with various concentrations of kinase inhibitor. Forty-eight hours later, fresh inhibitor was added and the cells incubated for 72 hours. Cell viability was measured through the addition of CellTiter-Glo (Promega) and luminenscence measured with a standard luminometer plate reader. Data were normalised and fitted to a log(inhibitor) vs. response curve (three parameters) with GraphPad Prism."}, "[2]": {"tested_on": "NIH3T3 cells expressing FGFR3 N540K", "details": "N540K NIH3T3 cells vs FGFR3TACC3-fusion cells, in words", "procedure": "as §1"}}}
{"compound": "COc1cc(OC)cc(N(CCNC(C)C)c2ccc3ncc(-c4cnn(C)c4)nc3c2)c1", "note": "[JNJ42756493]", "values": [{"measurement": "effect of variant on inhibitor efficacy in cells", "setting": "[1]", "value": "reduce efficacy"}, {"measurement": "effect of variant on inhibitor efficacy in cells", "setting": "[2]", "value": "reduce efficacy"}]}
